Measured data: PubChem BioAssay AID504744 (Drosophila RNAi Screening Center, 2011)

- Aim: 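Uncover factors, including feedback loops, that control dAkt activation in fly cells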 (primary screen)
- System: Drosophila Kc167 cells
- Reagent: long dsRNA against Drosophila genes, 250 ng dsRNA per well of a 384-well plate
- Timing: 3 days of knock-down, then overnight serum-free starvation before stimulation
- Conditions: bovine insulin at 387 nM for 10 minutes after 12 h without serum
- Measured: 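Per-well phospho-dAkt level from an in-cell fluorescent antibody stain, divided by a DNA-dye signal; log2 residuals turned into z-scores that take cell number into account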
- Hit rule: 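Hit in the insulin screen when the two-replicate mean z-score is more extreme than plus or minus 2.5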
In all, the deposit lists about 23,000 reagents; below is a random part of those with a known target gene and a result. In the full data, 98 (0.43%) got an active call. 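Only hit calls are given; the phospho-dAkt signals, z-scores and hit direction were not deposited.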 A plus sign joins genes that one reagent is predicted to hit.

CG42726 + CG42727 [DRSC14485]: activity call = inactive
pre-mod(mdg4)-AD + mod(mdg4) + pre-mod(mdg4)-X + 3 more [DRSC16328]: activity call = inactive
Pgls [DRSC19769]: activity call = inactive
CG1503 [DRSC20512]: activity call = inactive
Cdk4 [DRSC07358]: activity call = inactive
Obp56i [DRSC05812]: activity call = inactive
zen2 [DRSC12633]: activity call = inactive
CG12194 [DRSC00345]: activity call = inactive
Vhl [DRSC07716]: activity call = inactive
Df31 [DRSC03738]: activity call = inactive
Df31 [DRSC22163]: activity call = inactive
NP15.6 [DRSC16756]: activity call = inactive
kcc [DRSC04316]: activity call = inactive
kcc [DRSC04516]: activity call = inactive
CG41099 [DRSC21049]: activity call = inactive
CG41099 [DRSC21051]: activity call = inactive
CG1354 [DRSC17902]: activity call = inactive
CG33325 [DRSC12699]: activity call = inactive
Or49b [DRSC07494]: activity call = inactive
mthl5 [DRSC16155]: activity call = inactive
CG4613 [DRSC10435]: activity call = inactive
CG16721 [DRSC18113]: activity call = inactive
Brr2 [DRSC10559]: activity call = inactive
